Assay results taken from the supplement of paper PMC10373366.
Values joined by “and” are separate entries in the source; they are usually repeats but may differ in a detail not shown here. Identical values can stand only once. Counter-ions that a name gives are not always drawn. This is one part of the list. Repeats are few or missing, and single values can be far off.

These compounds were tested on A2780 (assay: cell growth inhibition ratio vs untreated control (CCK8); higher = stronger inhibition of cell viability). Settings: 10 µM; 48 h.
Experimental: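 Natural product library (Topscience) screened at 10 µM final concentration for 48 h on ovarian cancer A2780 cells and patient-derived ovarian cancer cells (PDC) in 96-well plates; viability read by CCK8 and reported as inhibition ratio (%) relative to untreated control. Single-dose primary screen.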

SMILES	cell growth inhibition ratio
C1=C2CCCN[C@H]2[C@@H]2C[C@H]1[C@H]1CCCCN1C2 [Aloperine]	8.97%
CCCCCc1cc(O)cc(O)c1 [Olivetol]	-2.67%
COc1ccc(CC2NCCc3cc(OC)c(OC)cc32)cc1OC (stereo not given) [Tetrahydropapaverine hydrochloride]	12.6%
CN1[C@@H]2CC[C@H]1C[C@@H](OC(=O)C(CO)c1ccccc1)C2 (stereo not given in full) [Atropine sulfate]	5.35%
CC1=CC(=O)c2c(O)cccc2C1=O [Plumbagin]	6.26%
CC(C)=CCC[C@@](C)(O)[C@H]1CC[C@]2(C)[C@@H]1[C@H](O)C[C@@H]1[C@@]3(C)CC[C@H](O)C(C)(C)[C@@H]3[C@@H](O[C@@H]3O[C@H](CO)[C@@H](O)[C@H](O)[C@H]3O)C[C@]12C [(20R)-Ginsenoside Rh1]	12%
N#C/C=C1/C=C[C@@H](O)[C@H](O)[C@H]1O[C@@H]1O[C@H](CO)[C@@H](O)[C@H](O)[C@H]1O [Griffonin]	11.5%
COc1cccc(C=O)c1OC [o-Veratraldehyde]	1.3%
CC[C@H](C)[C@H]1O[C@]2(C=C[C@@H]1C)C[C@@H]1C[C@@H](C/C=C(\C)[C@@H](O[C@H]3C[C@H](OC)[C@@H](O[C@H]4C[C@H](OC)[C@@H](O)[C@H](C)O4)[C@H](C)O3)[C@@H](C)/C=C/C=C3\CO[C@@H]4[C@H](O)C(C)=C[C@@H](C(=O)O1)[C@]34O)O2.CO[C@H]1C[C@H](O[C@H]2[C@H](C)O[C@@H](O[C@@H]3/C(C)=C/C[C@@H]4C[C@@H](C[C@]5(C=C[C@H](C)[C@@H](C(C)C)O5)O4)OC(=O)[C@@H]4C=C(C)[C@@H](O)[C@H]5OC/C(=C\C=C\[C@@H]3C)[C@]54O)C[C@@H]2OC)O[C@@H](C)[C@@H]1O [Abamectin]	69.4%
C[C@]12CC[C@H](O)C[C@@H]1CC[C@@H]1[C@@H]2CC[C@]2(C)C(=O)CC[C@@H]12 [Epiandrosterone]	9.32%
CN1[C@@H]2CC[C@H]1C[C@@H](OC(=O)[C@H](CO)c1ccccc1)C2 [L-Hyoscyamine]	28.4%
O=C(O)C1C2CCC(O2)C1C(=O)O (stereo not given) [Sodium Demethylcantharidate]	-4.95%
C[C@@H]1CC[C@@]2(OC1)O[C@H]1C[C@H]3[C@@H]4CC=C5C[C@@H](O[C@@H]6O[C@H](CO)[C@@H](O[C@@H]7O[C@@H](C)[C@H](O)[C@@H](O)[C@H]7O)[C@H](O)[C@H]6O[C@@H]6O[C@@H](C)[C@H](O)[C@@H](O)[C@H]6O)CC[C@]5(C)[C@H]4CC[C@]3(C)[C@H]1[C@@H]2C [Dioscin]	93.4%
CN(CC(=O)O)C(=N)NP(=O)(O)O [Creatine phosphate disodium salt]	-3.74%
C[C@@]1(C(=O)O)CC[C@]2(C)CC[C@]3(C)C4=CC(=O)c5c(cc(O)c(O)c5C=O)[C@]4(C)CC[C@@]3(C)[C@@H]2C1 [Demethylzeylasteral]	13.1%
CC(C)=CCC[C@](C)(O)[C@H]1CC[C@]2(C)[C@@H]1[C@H](O)C[C@@H]1[C@@]3(C)CC[C@H](O[C@@H]4O[C@H](CO)[C@@H](O)[C@H](O)[C@H]4O)C(C)(C)[C@@H]3CC[C@]12C [Ginsenoside Rh2]	-6.86% and 16.2%
COc1ccc2c3c([nH]c2c1)C(C)=NCC3 [Harmaline]	7.08%
C#C[C@]1(O)CC[C@H]2[C@@H]3CCC4=CC(=O)CC[C@]4(C)[C@H]3CC[C@@]21C [Ethisterone]	2.44%
CC(C)=CCOc1c2occc2cc2ccc(=O)oc12 [Imperatorin]	4.15%
COC1=C[C@]23CCCN2CCc2cc4c(cc2[C@@H]3[C@@H]1O)OCO4 [Cephalotaxine]	7.74%

SMILES	cell growth inhibition ratio
C=C[C@H]1CN2CC[C@H]1C[C@@H]2[C@@H](O)c1ccnc2ccccc12 [Cinchonine]	10.5%
CN[C@@H]1[C@@H](O)[C@@H](O[C@@H]2[C@@H](O)[C@H](O[C@H]3O[C@H]([C@@H](C)O)[C@@H](O)[C@H](O)[C@H]3N)[C@@H](N)C[C@H]2N)OC[C@]1(C)O [Geneticin (G418 Sulfate)]	7.08%
CC1=C2C(=O)[C@H]3[C@@H](CC=C4C[C@@H](O)CC[C@@]43C)[C@@H]2CC[C@]12O[C@@H]1C[C@H](C)CN[C@H]1[C@H]2C [Jervine]	15%
CC(=O)O[C@H]1[C@H]2O[C@]23[C@@H]2CC[C@@H]4C[C@@H](O)CC[C@]4(C)[C@H]2CC[C@]3(C)[C@H]1c1ccc(=O)oc1 [Cinobufagin]	88.9%
CCO[C@H]1O[C@@H]2O[C@@]3(C)CC[C@H]4[C@H](C)CC[C@@H]([C@H]1C)[C@@]24OO3 [Arteether]	30.5%
Cc1cc2c(C(C)C)c(O)c(O)c(C=O)c2c(O)c1-c1c(C)cc2c(C(C)C)c(O)c(O)c(C=O)c2c1O [Gossypol acetic acid]	93.4%
COC1=C[C@@H]2[C@@H]3Cc4ccc(OC)c(O)c4[C@]2(CCN3C)CC1=O [Sinomenine]	6.36%
NCC(O)c1ccc(O)cc1 (stereo not given) [Octopamine hydrochloride]	11.7%
COc1cc2c(cc1OC)[C@@H](Cc1ccc(O)c(Oc3cc4c(cc3OC)CCN(C)[C@@H]4Cc3ccc(O)cc3)c1)N(C)CC2.[O-][Cl+3]([O-])([O-])O [Liensinine Perchlorate]	22.9%
COc1cc(C2OCC3C(c4cc(OC)c(O[C@@H]5O[C@H](CO)[C@@H](O)[C@H](O)[C@H]5O)c(OC)c4)OCC23)cc(OC)c1O[C@H]1O[C@@H](CO)[C@H](O)[C@@H](O)[C@@H]1O (stereo not given in full) [Eleutheroside E]	-1.04%
COc1cccc2c1cc([N+](=O)[O-])c1c(C(=O)O)cc3c(c12)OCO3 [Aristolochic Acid]	9.17%
O=c1ccc2cc(O[C@@H]3O[C@H](CO)[C@@H](O)[C@H](O)[C@H]3O)c(O)cc2o1 [Esculin]	-0.456%
O=C1C[C@@H]2OCC=C3CN4CC[C@]56c7ccccc7N1[C@H]5[C@H]2[C@H]3C[C@H]46 [Strychnine]	11.6%
O=C(/C=C/c1ccccc1)OC[C@H]1O[C@@H](O[C@@H]2OC=C[C@H]3[C@H](O)[C@@H]4O[C@]4(CO)[C@@H]23)[C@H](O)[C@@H](O)[C@@H]1O [Picroside I]	-3.56%
C[C@@H]1C[C@@H]([C@H](O)CC2CC(=O)NC(=O)C2)C(=O)[C@@H](C)C1 [Actidione]	80%
CC1C=CC=CCCC=CC=CC=CC=CC(OC2OC(C)C(O)C(N)C2O)CC2OC(O)(CC(O)C(O)CCC(O)CC(O)CC(O)CC(=O)OC(C)C(C)C1O)CC(O)C2C(=O)O (stereo not given) [Nystatin (Fungicidin)]	4.33%
N#CCCN [3-Aminopropionitrile fumarate]	-3.43%
O=C1C=CC[C@@H]2[C@H]3CCC[N+]4([O-])CCC[C@@H](CN12)[C@@H]34 (stereo not given in full) [Oxysophocarpine]	2.24%
CCC1(O)C(=O)OCc2c1cc1n(c2=O)Cc2cc3ccccc3nc2-1 (single isomer, unassigned; (+)) [(+)-Camptothecin]	86.3%
COc1cc2c(c(OC)c1OC)-c1ccc(OC)c(=O)cc1[C@@H](NC(C)=O)CC2 [Colchicine]	87.7%
